The text below walks through data of PMC11133443.

The chains behind the UniProt entries cited, without tags or fusion partners.
UniProt P27540: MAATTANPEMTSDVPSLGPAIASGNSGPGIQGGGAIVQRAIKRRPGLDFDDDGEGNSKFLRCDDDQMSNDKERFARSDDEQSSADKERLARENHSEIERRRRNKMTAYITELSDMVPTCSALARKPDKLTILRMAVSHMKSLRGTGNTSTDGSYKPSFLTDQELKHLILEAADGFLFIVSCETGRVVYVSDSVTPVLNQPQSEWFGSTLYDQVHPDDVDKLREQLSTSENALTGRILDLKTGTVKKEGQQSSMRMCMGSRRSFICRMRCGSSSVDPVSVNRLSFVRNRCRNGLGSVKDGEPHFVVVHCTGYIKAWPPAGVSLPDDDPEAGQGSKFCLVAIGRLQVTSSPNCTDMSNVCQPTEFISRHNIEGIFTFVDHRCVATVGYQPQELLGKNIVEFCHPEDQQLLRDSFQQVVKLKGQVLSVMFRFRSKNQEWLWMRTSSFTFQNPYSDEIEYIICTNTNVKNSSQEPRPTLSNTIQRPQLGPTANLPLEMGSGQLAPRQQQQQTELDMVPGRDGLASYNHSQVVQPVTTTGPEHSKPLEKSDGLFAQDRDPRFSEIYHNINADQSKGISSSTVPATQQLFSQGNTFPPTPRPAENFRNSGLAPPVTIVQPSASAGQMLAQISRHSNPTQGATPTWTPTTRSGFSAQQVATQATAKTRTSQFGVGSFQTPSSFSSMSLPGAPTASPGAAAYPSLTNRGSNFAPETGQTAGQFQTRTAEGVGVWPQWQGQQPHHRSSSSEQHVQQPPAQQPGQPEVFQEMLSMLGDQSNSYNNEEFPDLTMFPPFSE
UniProt Q16539: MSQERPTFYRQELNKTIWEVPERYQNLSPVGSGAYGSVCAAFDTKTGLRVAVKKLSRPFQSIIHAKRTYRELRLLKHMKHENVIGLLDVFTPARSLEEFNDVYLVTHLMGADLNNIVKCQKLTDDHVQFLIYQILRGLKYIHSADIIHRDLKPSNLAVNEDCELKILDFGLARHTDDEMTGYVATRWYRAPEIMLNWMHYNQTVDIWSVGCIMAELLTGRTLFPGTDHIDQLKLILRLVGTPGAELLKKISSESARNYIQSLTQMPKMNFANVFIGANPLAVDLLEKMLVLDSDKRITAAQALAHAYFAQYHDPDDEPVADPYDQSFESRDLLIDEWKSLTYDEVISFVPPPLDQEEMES

No constants are given. Whether binding was seen depends on the method and setting. In cells and extracts the contact can be indirect. Some results given as binding are weak or reduced against the parent protein; the word gives no strength.

Assay [1] has as its target Glutathione S-transferase (GST)-tagged ARNT (UniProt P27540). Briefly: pull-down; GST-tagged ARNT (or ARNT fragments) transfected into HEK293T cells with or without p38α plasmid; lysates incubated with glutathione sepharose beads for 1 h, washed with lysis buffer, western blot. On the technique in general: In western blotting, separated proteins are transferred to a membrane and probed.

Assay [2] deals with endogenous ARNT (human (endogenous in 7209 and U87MG)) (UniProt P27540). The experiment in a line: co-IP; endogenous proteins in 7209 and U87MG lysates (IP lysis buffer); ARNT antibody or p38α antibody overnight at 4 °C, Protein A Dynabeads, non-specific IgG as control, western blot.

Turning to p38α (from UniProt Q16539 1-360), the binding result in assay [1] is recorded as “binds”.
With “endogenous p38α (from UniProt Q16539 1-360)”, the binding entry in assay [2] was “binds”.
